Results published in US9622495B2, “Methods to decontaminate cereal grains with chlorine dioxide” (Diversey, Inc., priority 2011, dated 2017).

Experiment: Chlorine dioxide residue measurement on treated barley

[O][Cl+][O-] [ClO2, chlorine dioxide]
Chlorine dioxide in the wash solution of treated barley (1 g barley washed with 10 ml deionised water after draining the steeping solution): less than 0.2 ppm
Chlorine dioxide in malted barley from the treated batch (malted barley, data not shown): free of chlorine dioxide
